# pIC50: −log10 of the molar value. Counter-ions that a name gives are not always drawn. Some results were stated once for a whole list of compounds, not compound by compound.
# Biological target: T1, recombinant human autotaxin (Homo sapiens, UniProt Q13822)
# T1 construct: full length human autotaxin with a C-terminal His tag transfected into 293E cells; His tag (C); made in house; host or cells: 293E cells
# Experiment: Inhibition of Autotaxin as Measured by Choline Release
# Format: biochemical
# Details: substrate LPC 16:0 30 μM, 37° C., 1 hour; arithmetic mean
# Method: The purpose of this assay is to detect autotaxin inhibition using a choline release assay.
# Test compounds (10 mM stocks in 100% DMSO) are serially diluted in 100% DMSO resulting in 10 concentrations of 100× inhibitor in half area 96 well plates (Corning 3992). Each of these 10 wells in 100% DMSO is diluted 1:33.33 in assay buffer in round bottom 96 well plates (Fisher 12565502) resulting in 3× concentrations in well containing 3% DMSO. The assay buffer is 50 mM Tris pH8.0, 5 mM KCl, 1 mM CaCl2, 1 mM MgCl2, 0.01% TRITON™ X-100 (Sigma T9284) and 0.01% fatty acid free bovine serum albumin (Sigma A8806). A 20 μl aliquot of each 3× test compound is then added to black flat bottom 96 well plates (Corning 3991) in singlicate. A 20 μl aliquot per well of 3× recombinant human autotaxin (full length human autotaxin with a C-terminal His tag transfected into 293E cells and purified via nickel chelate and size exclusion chromatography) is then added to every well except for the no enzyme control wells. A 20 μl aliquot per well of assay buffer is added to the no enzyme control wells. A 20 μl aliquot of a 3× cocktail containing choline oxidase (Sigma C5896), horseradish peroxidase (Sigma P8125), amplex ultrared (Invitrogen A36006) and the autotaxin substrate lysophosphatidylcholine (LPC) 16:0 (Avanti Polar Lipids 855675P) is added to each well while avoiding exposure to light. The final concentrations in the well of choline oxidase, horseradish peroxidase, amplex ultrared and LPC 16:0 are 0.4 units/ml, 4 units/ml, 40 μM and 30 μM respectively. The plate is then sealed with aluminum foil seals and incubated at 37° C. for 1 hour in a Labline Imperial III incubator. During this incubation, LPC is cleaved by autotaxin resulting in Lysophosphatidic Acid (LPA) 16:0 and choline. The choline that is released is oxidized by choline oxidase resulting in betaine and hydrogen peroxide. The hydrogen peroxide reacts with the horseradish peroxide and amplex ultrared to form the fluorescent molecule resorufin. The resorufin on the plates is measured with a SpectraMax Gemini EM fluorometer at excitation-emission wavelengths of 530-590 nm using SoftMax Pro 4.8 software. IC50s are calculated using 4 parameter curve fits with the internal Lilly software OLO curve fitting tool. Results are expressed as the arithmetic mean +/− standard deviation; n=x.
row,Compound,pIC50
1,"O=C(OCC1CCc2nccn2C1)N1Cc2cnc(NC3Cc4ccccc4C3)nc2C1 (racemic) [Example 1, 5,6,7,8-tetrahydroimidazo[1,2-a]pyridin-6-ylmethyl 2-(2,3-dihydro-1H-inden-2-ylamino)-5,7-dihydro-6H-pyrrolo[3,4-d]pyrimidine-6-carboxylate]",> 7.00
2,"O=C(OCC1Cn2ccnc2CO1)N1Cc2cnc(NC3Cc4ccccc4C3)nc2C1 (racemic) [Example 6, 5,6-dihydro-8H-imidazo[2,1-c][1,4]oxazin-6-ylmethyl 2-(2,3-dihydro-1H-inden-2-ylamino)-5,7-dihydro-6H-pyrrolo[3,4-d]pyrimidine-6-carboxylate]",> 7.00
3,"O=C(OCC1CCc2nccn2C1)N1Cc2cnc(NC3Cc4ccccc4C3)nc2C1 (single isomer, unassigned; isomer 1) [Example 2, 5,6,7,8-tetrahydroimidazo[1,2-a]pyridin-6-ylmethyl 2-(2,3-dihydro-1H-inden-2-ylamino)-5,7-dihydro-6H-pyrrolo[3,4-d]pyrimidine-6-carboxylate isomer 1]",> 7.00
4,"O=C(COC1CCc2nccn2C1)N1Cc2cnc(NC3Cc4ccccc4C3)nc2C1 (single isomer, unassigned; isomer 1) [Example 13, 1-[2-(2,3-dihydro-1H-inden-2-ylamino)-5,7-dihydro-6H-pyrrolo[3,4-d]pyrimidin-6-yl]-2-(5,6,7,8-tetrahydroimidazo[1,2-a]pyridin-6-yloxy)ethanone isomer 1]",> 7.00
5,"O=C(OCC1Cn2ccnc2CO1)N1Cc2cnc(NC3Cc4ccccc4C3)nc2C1 (single isomer, unassigned; isomer 2) [Example 10, 5,6-dihydro-8H-imidazo[2,1-c][1,4]oxazin-6-ylmethyl 2-(2,3-dihydro-1H-inden-2-ylamino)-5,7-dihydro-6H-pyrrolo[3,4-d]pyrimidine-6-carboxylate hydrochloride isomers 2]",> 7.00
6,"O=C(OC[C@H]1Cn2ccnc2CO1)N1Cc2cnc(NC3Cc4ccccc4C3)nc2C1 [Example 11, [(6R)-6,8-dihydro-5H-imidazo[2,1-c][1,4]oxazin-6-yl]methyl 2-(indan-2-ylamino)-5,7-dihydropyrrolo[3,4-d]pyrimidine-6-carboxylate]",> 7.00
7,"O=C(COC1CCc2nccn2C1)N1Cc2cnc(NC3Cc4ccccc4C3)nc2C1 (centres unmarked) [Example 12, 1-[2-(2,3-dihydro-1H-inden-2-ylamino)-5,7-dihydro-6H-pyrrolo[3,4-d]pyrimidin-6-yl]-2-(5,6,7,8-tetrahydroimidazo[1,2-a]pyridin-6-yloxy)ethanone]",> 7.00
8,"O=C(COC1CCc2nccn2C1)N1CCc2nc(NC3Cc4ccccc4C3)ncc2C1 (centres unmarked) [Example 15, 1-[2-(2,3-dihydro-1H-inden-2-ylamino)-7,8-dihydropyrido[4,3-d]pyrimidin-6(5H)-yl]-2-(5,6,7,8-tetrahydroimidazo[1,2-a]pyridin-6-yloxy)ethanone]",> 7.00

# — US9394317B2, “Imidazo pyridine compounds” (Eli Lilly and Company, priority 2013, dated 2016)
